Results are given in words; binding and its absence hold for the method and conditions named. In cells and extracts the contact can be indirect. A yes stands for co-enrichment or nearness to the bait. Other partners may have been found.
Biological target: Ago2-Flag (UniProt Q9UKV8)
Assay: immunoprecipitation of Ago-1 or Ago-2 from HEK 293 lysates, mass spectrometry

The chains behind the UniProt entries cited, without tags or fusion partners. Residues count along the entry.
UniProt Q9UKV8: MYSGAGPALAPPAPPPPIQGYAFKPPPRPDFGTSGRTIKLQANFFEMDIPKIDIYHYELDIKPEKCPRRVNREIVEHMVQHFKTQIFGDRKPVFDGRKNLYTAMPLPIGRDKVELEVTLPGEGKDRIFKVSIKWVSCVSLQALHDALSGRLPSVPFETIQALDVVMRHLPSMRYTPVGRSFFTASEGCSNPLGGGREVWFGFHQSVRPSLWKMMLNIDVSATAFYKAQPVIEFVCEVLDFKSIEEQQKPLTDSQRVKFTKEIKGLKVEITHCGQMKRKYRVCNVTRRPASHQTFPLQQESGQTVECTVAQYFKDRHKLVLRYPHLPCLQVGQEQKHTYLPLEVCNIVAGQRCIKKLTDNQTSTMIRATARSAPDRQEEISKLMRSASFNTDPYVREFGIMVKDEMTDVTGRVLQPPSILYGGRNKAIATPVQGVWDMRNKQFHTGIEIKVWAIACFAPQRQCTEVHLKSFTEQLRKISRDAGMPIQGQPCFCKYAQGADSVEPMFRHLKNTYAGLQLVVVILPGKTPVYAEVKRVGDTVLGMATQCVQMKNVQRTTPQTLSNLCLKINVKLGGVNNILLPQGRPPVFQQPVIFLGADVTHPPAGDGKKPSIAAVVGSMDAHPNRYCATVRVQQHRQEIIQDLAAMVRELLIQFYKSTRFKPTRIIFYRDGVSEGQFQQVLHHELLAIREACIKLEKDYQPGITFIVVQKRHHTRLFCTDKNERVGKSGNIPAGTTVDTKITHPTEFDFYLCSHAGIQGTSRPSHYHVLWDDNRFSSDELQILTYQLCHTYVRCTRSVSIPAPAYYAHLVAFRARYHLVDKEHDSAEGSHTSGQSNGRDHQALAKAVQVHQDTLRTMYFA
UniProt P67809, residues 2-324: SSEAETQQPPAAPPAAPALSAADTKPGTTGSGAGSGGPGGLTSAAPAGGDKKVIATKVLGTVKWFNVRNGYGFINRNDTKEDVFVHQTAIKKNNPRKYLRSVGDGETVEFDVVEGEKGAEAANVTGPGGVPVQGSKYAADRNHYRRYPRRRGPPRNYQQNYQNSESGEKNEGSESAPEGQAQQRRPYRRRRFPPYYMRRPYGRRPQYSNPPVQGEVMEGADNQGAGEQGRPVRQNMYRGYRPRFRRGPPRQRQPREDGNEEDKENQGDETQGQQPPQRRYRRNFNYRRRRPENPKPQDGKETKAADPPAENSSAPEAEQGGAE

## YB-1 (from UniProt P67809 2-324)
  binding: binds

— patent US20190330628A1
